Out of some 300,000 compounds screened, about 3,700 (1.2%) were called active. This list was built around the results that the source calls inconclusive (neither active nor inactive); the mix of calls is not that of the screen. Calls follow the shape of the full dose curve; tested in HEK293 cells. Potencies beside an inconclusive call are fits to weak or partial responses and may not hold up.
Assay: qHTS for Inhibitors of binding or entry into cells for Lassa Virus; also: nearly all actives have a fitted effect of over 50% in size
Details: Lassa virus pseudotype entry inhibition, cell reporter; series mostly up to 37.9 µM
Potency is read from the fitted curve at half-maximal effect.

Row | Structure (SMILES) | Potency
1 | CCOC(=O)C1(Cc2cccc(F)c2)CCN(C(=O)C2CCCO2)CC1 (stereo not given) | inconclusive: 35.5 µM [inhibitor, single point]
2 | CCOc1ccc(C(=O)N2CCCCC2CCN2CCOCC2)cc1 (stereo not given) | inconclusive: 3.16 µM [activator, partial curve]
3 | CCCCCn1c(NC(=O)c2ccco2)c(C(=O)OCC)c2nc3ccccc3nc21 | inconclusive: 4.47 µM [inhibitor, full curve, poor fit]
4 | Cn1c(CNc2nc3ccccc3n2C)nc2ccccc21 | inactive
5 | Cc1ccc(CSc2nc3ccccc3cc2C=O)cc1 | inconclusive: 6.31 µM [inhibitor, full curve]
6 | N#CCSc1nc2cc(C(=O)N3CCCC3)ccc2c(=O)n1Cc1ccccc1 | inconclusive: 32.6 µM [inhibitor, single point]
7 | Cc1c(Cl)cccc1NC(=O)CCn1nc(C)c2c(C)n(-c3ccccc3)nc2c1=O | inactive
8 | CC1=C(C)CC(C(=O)NNC(=O)c2cccc(Cl)c2)C(C(=O)O)C1 (stereo not given) | inactive
9 | Cc1ccc(NC(=O)C(=O)NCC(c2cccnc2)N2CCc3ccccc32)cc1Cl (stereo not given) | inactive
10 | CCOc1cc(C(=O)Nc2ccc3c4c(cccc24)C(=O)N3CC)cc(OCC)c1OCC | inactive
11 | COc1ccc(C(=O)/C(=C/O)N=Nc2ccc(F)cc2)cc1 | inconclusive: 35.5 µM [inhibitor, single point]
12 | O=C(Nc1ccc2c(c1)OCO2)C1CCN(C(=O)CSc2ncnc3ccccc23)CC1 | inactive
13 | Cc1ccc(CN2CCN(CC(=O)NCc3ccccc3Cl)C2=O)cc1 | inconclusive: 0.501 µM [inhibitor, full curve, poor fit]
14 | Cc1cc(C)cc(-n2nnc(-c3nc(-c4ccccc4F)no3)c2C)c1 | inconclusive: 20 µM [activator, single point]
15 | O=C1CCC(C(=O)Nc2cccc(S(=O)(=O)Nc3ccccc3F)c2)=NN1 | inactive
16 | COc1ccc(OC)c(S(=O)(=O)Nc2ccc(F)cc2)c1 | inconclusive: 4.11 µM [activator, partial curve, poor fit]
17 | COc1ccc(NC(=O)CO/N=C(\C)c2cccs2)cc1 | inactive
18 | O=C(COC(=O)CCc1ccc(S(=O)(=O)N2CCCCC2)cc1)Nc1cccc2ccccc12 | inactive
19 | CCOC(=O)C1(Cc2ccccc2C)CCCN(C(=O)CN2CCCCC2=O)C1 (stereo not given) | inactive
20 | COC(=O)c1sc(N)c(C(=O)OC)c1COC(=O)C12CC3CC(CC(O)(C3)C1)C2 | inactive
21 | CC1CCN(C(=O)c2ccc(SCc3ccccc3F)c([N+](=O)[O-])c2)CC1 | inconclusive: 0.355 µM [activator, partial curve, poor fit]
22 | O=C(Nc1ccccc1)c1cc2ccccc2o1 | active: 10 µM
23 | COc1ccc(-c2ccc3c(N)c(C(=O)Nc4cc(F)ccc4C)sc3n2)cc1 | inactive
24 | COCCN(C(=O)CCC(=O)Nc1cc(C)on1)C(C(=O)NC(C)(C)C)c1ccccc1Cl (stereo not given) | inactive

Molecules listed so far that have a thiophene ring, fused or not:
Row | Structure (SMILES) | Potency
17 | COc1ccc(NC(=O)CO/N=C(\C)c2cccs2)cc1 | inactive
20 | COC(=O)c1sc(N)c(C(=O)OC)c1COC(=O)C12CC3CC(CC(O)(C3)C1)C2 | inactive
23 | COc1ccc(-c2ccc3c(N)c(C(=O)Nc4cc(F)ccc4C)sc3n2)cc1 | inactive

(next part)

Row | Structure (SMILES) | Potency
25 | COc1cccc(N/C(SCc2ccccc2C)=C(/C#N)C(=O)NCc2cccs2)c1 | inconclusive: 4.47 µM [inhibitor, partial curve, poor fit]
26 | c1ccc(-c2ccc(-c3nc(-c4cccnc4)no3)cc2)cc1 | inconclusive: 5.8 µM [inhibitor, full curve, poor fit]
27 | O=C(COC(=O)c1ccccc1C(=O)c1ccc(Cl)c([N+](=O)[O-])c1)NC1CCCCCC1 | active: 18.3 µM
28 | Cc1cccc(NC(=S)NCc2ccncc2)c1C | inactive
29 | CCCCN1C(=O)C2(NNc3ccccc3O2)c2ccccc21 (stereo not given) | inactive
30 | O=C(O)CCC/C=C\C[C@@H]1[C@@H](/C=C/[C@H](O)C2Cc3ccccc3C2)[C@@H](F)C[C@@H]1O | inconclusive: 2.59 µM [activator, partial curve, poor fit]
31 | Cc1cc(C(=O)COc2cccnc2[N+](=O)[O-])c(C)n1Cc1ccco1 | inactive
32 | COc1ccc(CCSc2nnc(C3CCCCC3)n2N)cc1 | inconclusive: 17.8 µM [inhibitor, single point]
33 | CC1CC1c1ccc(/C=C(\C#N)C(=O)Nc2ccc(Cl)cc2)o1 (stereo not given) | inconclusive: 35.5 µM [inhibitor, single point]
34 | O=C1C(Cl)=C(NCCCN2CCOCC2)C(=O)c2ccccc21 | inconclusive: 22.4 µM [inhibitor, single point]
35 | CN1C(=O)c2ccccc2Sc2ccc(C(=O)O)cc21 | inconclusive: 35.5 µM [activator, single point]
36 | COc1ccccc1N1CCN(CC(O)COc2cc(C)cc(C)c2)CC1 (stereo not given) | inconclusive: 11.2 µM [inhibitor, partial curve, poor fit]
37 | CCOC(=O)C1=C(C)N=c2s/c(=C\c3cc(OC)c(OC)c(OC)c3)c(=O)n2C1/C=C/c1ccccc1 (stereo not given) | inconclusive: 6.31 µM [inhibitor, single point]
38 | O=C1C2CC=CCC2C(=O)N1Cc1ccccc1Cl (stereo not given) | inactive
39 | COc1cc(-c2cc(O)c(-c3ccc4ccccc4n3)c(=O)[nH]2)cc(OC)c1OC | inconclusive: 7.08 µM [inhibitor, partial curve, poor fit]
40 | CC(C)Cc1ccc(C(C)/C=C2/CCC(CN3CCCCC3)C2=O)cc1 (stereo not given) | inconclusive: 35.5 µM [inhibitor, single point]
41 | CCOC(=O)COc1c(OC)cc(Cl)cc1C1Nc2ccccc2C(=O)N1c1ccc(F)cc1 (stereo not given) | inconclusive: 1.83 µM [inhibitor, partial curve, poor fit]
42 | COc1ccccc1C1=NNC(=Nc2cccc(S(=O)(=O)N(C)C)c2)SC1 | inconclusive: 12.6 µM [inhibitor, partial curve, poor fit]
43 | COc1ccc(NC(=O)CN(C)C(=O)c2cccc(S(=O)(=O)N3CCN(Cc4ccccc4)CC3)c2)cc1 | inconclusive: 10 µM [inhibitor, partial curve, poor fit]
44 | Cc1cccc(OC(C)C(=O)Nc2nc(-c3ccncc3)cs2)c1 (stereo not given) | inconclusive: 10 µM [inhibitor, partial curve, poor fit]
45 | CCOc1ccc(/C=N/NC(=O)c2cc3c(OC)cccc3[nH]2)cc1 | inconclusive: 11.2 µM [inhibitor, partial curve, poor fit]
46 | Cn1ncc(Br)c1NC(=O)c1ccco1 | inconclusive: 1.26 µM [inhibitor, single point]
47 | COc1ccccc1NS(=O)(=O)c1ccc(O)c(C(=O)OCC(=O)N2CCc3ccccc32)c1 | inconclusive: 11.2 µM [inhibitor, partial curve, poor fit]
48 | COc1ccc(/C(C)=N/OCC(=O)Nc2nc3ccccc3s2)cc1OC | inconclusive: 1.41 µM [inhibitor, partial curve, poor fit]

Row | Structure (SMILES) | Potency
49 | O=C(Nc1ccc2c(c1)CCC2)c1ccc(Br)s1 | inconclusive: 17.8 µM [inhibitor, single point]
50 | Cn1cc(-c2nnc(-c3ccccc3)o2)c2ccccc21 | inconclusive: 1.03 µM [activator, single point]
51 | CC(=O)c1cccc(NC(=O)c2cc(=O)[nH]c3ccccc23)c1 | inconclusive: 17.8 µM [activator, single point]
52 | CC(=O)Nc1cccc(NC(=O)c2cc(-c3cccnc3)nc3ccc(Cl)cc23)c1 | inconclusive: 35.5 µM [inhibitor, single point]
53 | CCOC(=O)C(=Cc1ccc(-n2cncn2)cc1)C(=O)OCC | active: 11.2 µM
54 | Cc1cnc(C(=O)Nc2ccc(C(C)C)cc2)cn1 | inconclusive: 10 µM [inhibitor, partial curve, poor fit]
55 | Cc1ccc(N2CCN(C(=S)c3ccc(N(C)C)cc3)CC2)cc1 | inactive
56 | Cc1c(-c2cc(Br)ccc2O)nc2cc3c(cc2c1C)OCO3 | inactive
57 | COc1cccc(NC(=O)CN(C)C(=O)c2cc(-c3cccc(Br)c3)nc3ccccc23)c1 | inconclusive: 35.5 µM [inhibitor, single point]
58 | Cc1ccc(Cn2cc(C=O)c3ccccc32)cc1 | inconclusive: 3.55 µM [inhibitor, partial curve, poor fit]
59 | O=C(CNC(=O)c1sc2ccccc2c1Cl)NCc1cccnc1 | inconclusive: 5.62 µM [inhibitor, single point]
60 | CCCCN(C)CCNC(=O)c1cc2c(-c3cccc(OC)c3)nn(C)c2s1 | inconclusive: 22.4 µM [inhibitor, partial curve, poor fit]
61 | NC(=O)C1CCN(C(=O)c2ccccc2CCc2ccccc2)CC1 | inactive
62 | CC(C)NCC(O)COC1CCC(C(C)(C)C)CC1 (stereo not given) | inconclusive: 15.8 µM [inhibitor, single point]
63 | COc1ccc(OCC(=O)NCC(c2ccc(Cl)cc2)N2CCCCC2)cc1 (stereo not given) | inactive
64 | Cc1cccc2c(=O)c(C(=O)NCc3cccs3)c[nH]c12 | inactive
65 | COc1ccc(-c2nnc(N)s2)cc1OC | inactive
66 | COc1ccc(-c2nnc(SCC(=O)NC(C)C)n2CC2CCCO2)cc1OC (stereo not given) | inactive
67 | Cn1c(O)c(C=NCCCN2CCCC2=O)c(=O)n(C)c1=O | inconclusive: 4.61 µM [activator, full curve, poor fit]
68 | CC(=O)Nc1ccc(S(=O)(=O)N2CCC(Oc3ccc(-n4cnnn4)cc3)CC2)cc1 | inconclusive: 35.5 µM [inhibitor, single point]
69 | Clc1ccc2c(N/N=C/c3cccnc3)ccnc2c1 | inconclusive: 35.5 µM [inhibitor, single point]
70 | COc1cccc(CNC(=O)c2ccc(C)c(S(=O)(=O)N3CCCCC3)c2)c1 | inconclusive: 5.62 µM [inhibitor, partial curve, poor fit]

2 of the compounds above, with tabs.
Row	Structure (SMILES)	Potency
4	Cn1c(CNc2nc3ccccc3n2C)nc2ccccc21	inactive
5	Cc1ccc(CSc2nc3ccccc3cc2C=O)cc1	inconclusive: 6.31 µM [inhibitor, full curve]

— PubChem BioAssay AID540256 (National Center for Advancing Translational Sciences (NCATS), 2011)
